Results are given in words; binding and its absence hold for the method and conditions named. In cells and extracts the contact can be indirect. Binding calls can cover weak binding; strength is not graded here.
Target: Flag-p300^Mut (from pCDNA3-2×Flag-p300^Mut; PMDLS motif mutated to AMAAS) (UniProt Q09472)
Assay: co-IP; Flag-tagged and Myc-tagged plasmids co-transfected into HC-OA cells, 48 h, lysed, anti-Flag agarose and anti-c-Myc agarose 4°C 2 h, four washes with 1×RIPA; blots with anti-Flag and anti-Myc

Chains of the proteins cited; added tags and fusions are not shown.
UniProt P01100: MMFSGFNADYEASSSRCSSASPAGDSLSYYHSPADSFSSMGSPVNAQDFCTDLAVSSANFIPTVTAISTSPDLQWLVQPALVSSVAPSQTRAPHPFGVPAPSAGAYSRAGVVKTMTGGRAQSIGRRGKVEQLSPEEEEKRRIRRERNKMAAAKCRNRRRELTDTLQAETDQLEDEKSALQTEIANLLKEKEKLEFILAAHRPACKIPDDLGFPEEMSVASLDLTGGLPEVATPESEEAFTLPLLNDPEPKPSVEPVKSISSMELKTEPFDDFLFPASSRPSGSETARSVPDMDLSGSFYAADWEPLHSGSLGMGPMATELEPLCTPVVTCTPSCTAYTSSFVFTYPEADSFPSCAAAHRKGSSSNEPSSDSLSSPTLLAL
UniProt P05412: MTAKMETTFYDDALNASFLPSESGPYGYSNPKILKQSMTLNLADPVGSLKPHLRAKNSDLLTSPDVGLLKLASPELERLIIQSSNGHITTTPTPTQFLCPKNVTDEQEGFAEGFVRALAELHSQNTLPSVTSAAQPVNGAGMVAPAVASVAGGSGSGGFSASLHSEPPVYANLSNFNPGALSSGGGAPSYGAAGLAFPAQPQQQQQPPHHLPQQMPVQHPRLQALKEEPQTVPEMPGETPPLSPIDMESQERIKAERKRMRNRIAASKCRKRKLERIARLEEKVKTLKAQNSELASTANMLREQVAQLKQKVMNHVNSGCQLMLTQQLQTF

Row | binding | Substance
1 | no binding | Myc-CtBP2 (from pCDNA3-6×Myc-CtBP2) (from UniProt P56545 1-445)
2 | binds | Myc-c-FOS (AP1 subunit, from pCDNA3-6×Myc-c-FOS) (from UniProt P01100 1-380)
3 | binds | Myc-c-Jun (AP1 subunit, from pCDNA3-6×Myc-c-Jun) (from UniProt P05412 1-331)

From PMC7053340
